Measurements taken from PubChem BioAssay AID330 (DTP/NCI, 2004).
The list does not hold the whole screen: it gathers tests that were run many times, whatever their T/C, doses with no T/C, and many T/C values between a quarter and a half above the control. Other doses and runs of a compound stand elsewhere. T/C: endpoint of the treated group in % of that of the vehicle group. Some doses have a count of surviving animals in place of a T/C: the source holds a T/C of zero for them, seemingly a mark for toxic or unscored doses. Some survivor counts are full or nearly so, which does not show that the dose was tolerated: the source hardly ever lists a survival T/C far under the control, and the zero likely stands for such cases as well. Counts of survivors are from the toxicity check (mostly the fifth day) where no day follows; animals may have died later. Schedules are NCI's codes, taken here to give the interval after Q, in days (D) or hours (H), and the number of doses after X. Where survival is the endpoint, this PubChem deposit counts one and a half times the control or more as active, and values a quarter to a half above the control carry no call in these data; other NCI protocols may use other cut-offs. Some T/C values are followed by the survivors on the day toxicity was checked, most often the fifth; without a count, all were alive then.

Tested on: P388 leukemia ip, CD2F1 mice, survival T/C
Assay: NCI In Vivo Anticancer Drug Screen. Data for tumor model P388 Leukemia (intraperitoneal) in CD2F1 (CDF1) mice
Conditions: T/C endpoint: median survival time, higher T/C = longer survival
[1] = dose: 200.0 mg/kg/injection, schedule: Q01DX009 (ip), vehicle: saline with Tween-80
[2] = dose: 50.0 mg/kg/injection, schedule: Q01DX005 (ip), vehicle: saline with Tween-80
[3] = dose: 200.0 mg/kg/injection, schedule: Q01DX005 (ip), vehicle: saline with Tween-80
[4] = dose: 240.0 mg/kg/injection, schedule: Q01DX005 (ip), vehicle: saline with Tween-80

Which T/C (dose: 150.0 mg/kg/injection, schedule: Q01DX009 (ip), vehicle: saline with Tween-80) does the source give for `CC1(C)N=C(N)N=C(N)N1c1cccc(CCC(=O)Nc2ccc(S(=O)(=O)F)cc2)c1` here?
The T/C was 127 % of control.

What about the survivor count (dose: 300.0 mg/kg/injection, schedule: Q01DX009 (ip), vehicle: saline with Tween-80) of the same molecule?
The survivor count was 0 of 6.

For `[CH3][Sn]([CH3])([Cl])[CH2]CC[CH2][Sn]([Cl])([Cl])[Cl]`, which survivor count (dose: 25.0 mg/kg/injection, schedule: Q01DX009 (ip), vehicle: saline) is on record?
The survivor count was 3 of 6.

And the survivor count (dose: 50.0 mg/kg/injection, schedule: Q01DX009 (ip), vehicle: saline)?
The survivor count was 0 of 6.

What about the survivor count (dose: 100.0 mg/kg/injection, schedule: Q01DX009 (ip), vehicle: saline) of the same molecule?
Its survivor count is 0 of 6.

And the survivor count (dose: 200.0 mg/kg/injection, schedule: Q01DX009 (ip), vehicle: saline)?
The survivor count was 0 of 6.

With `CC(=O)c1ccc2c(=O)c(C(=O)O)c[nH]c2c1` as the molecule, how does the survivor count (dose: 50.0 mg/kg/injection, schedule: Q01DX009 (ip), vehicle: saline with Tween-80) read?
The survivor count was 6 of 6.

With `O=C(CCl)N1C(=O)NC(c2ccc(Cl)cc2)(c2ccc(Cl)cc2)C1=O` as the molecule, how does the T/C (dose: 40.0 mg/kg/injection, schedule: Q04DX003 (ip), vehicle: other, evaluated on day 30) read?
Its T/C is 128 % of control.

What about the T/C (dose: 40.0 mg/kg/injection, schedule: Q04DX003 (ip), vehicle: other, evaluated on day 35) of the same molecule?
Its T/C is 136 % of control.

And the survivor count (dose: 80.0 mg/kg/injection, schedule: Q04DX003 (ip), vehicle: other)?
Its survivor count is 3 of 6.

What about the survivor count (dose: 160.0 mg/kg/injection, schedule: Q04DX003 (ip), vehicle: other) of the same molecule?
Its survivor count is 1 of 6.

What about the survivor count (dose: 320.0 mg/kg/injection, schedule: Q04DX003 (ip), vehicle: other) of the same molecule?
Its survivor count is 0 of 6.

Which survivor count (dose: 286.0 mg/kg/injection, schedule: Q01DX005 (ip), vehicle: Klucel (hydroxypropylcellulose) (HPC)) does the source give for `C=C(C)C1CC=C(C)C(CCC2C(=C)CCC3C(C)(C)C(OC4OC(CO)C(O)C(O)C4NC(C)=O)CCC23C)C1(C)CCC(=O)O` (stereo not drawn) here?
Its survivor count is 0 of 6.

How did the survivor count (dose: 200.0 mg/kg/injection, schedule: Q01DX009 (ip), vehicle: water) turn out when `COc1cc2c[n+]3c4c(cccc4c2cc1OC)CC3` was run?
Its survivor count is 0 of 6.

And the survivor count (dose: 400.0 mg/kg/injection, schedule: Q01DX009 (ip), vehicle: water)?
Its survivor count is 0 of 6.

`CCCCCC(CN(C)C)C(=O)/C=C/c1ccc2c(c1)OCO2` (stereo not drawn) was tested. Which survivor count [1] did it give?
The survivor count was 0 of 6.

For `C[N+](C)=c1ccc2nc3c(ccc4ccccc43)oc-2c1`, which survivor count [2] is on record?
Its survivor count is 0 of 5.

And the survivor count (dose: 100.0 mg/kg/injection, schedule: Q01DX005 (ip), vehicle: saline with Tween-80)?
Its survivor count is 0 of 5.

What about the survivor count [3] of the same molecule?
The survivor count was 0 of 5.

Which T/C (dose: 200.0 mg/kg/injection, schedule: Q01DX009 (ip), vehicle: Klucel (hydroxypropylcellulose) (HPC)) does the source give for `O=C(Nc1ccc(F)cc1F)Oc1cccc2cccnc12` here?
The T/C was 129 % of control.

Which survivor count [3] does the source give for `OCCN(CCO)Cc1cccc2ccccc12` here?
The survivor count was 3 of 6.

`CCOc1cc2c(cc1OC)c[n+](C)c1c3cc(OC)c(OC)cc3ccc21` was tested. Which T/C (dose: 5.0 mg/kg/injection, schedule: Q01DX009 (ip), vehicle: water) did it give?
Its T/C is 125 % of control [2 of 3 alive].

And the T/C (dose: 20.0 mg/kg/injection, schedule: Q01DX009 (ip), vehicle: water)?
The T/C was 137 % of control.

What about the T/C (dose: 40.0 mg/kg/injection, schedule: Q01DX009 (ip), vehicle: water) of the same molecule?
Its T/C is 133 % of control.

And the T/C (dose: 80.0 mg/kg/injection, schedule: Q01DX009 (ip), vehicle: water)?
Its T/C is 137 % of control.

For `Cc1cc(N(CCCl)CCCl)ccc1C=Nc1ccccc1-c1ccccc1`, which T/C (dose: 266.0 mg/kg/injection, schedule: Q01DX009 (ip), vehicle: Klucel (hydroxypropylcellulose) (HPC)) is on record?
Its T/C is 135 % of control.

Which T/C (dose: 100.0 mg/kg/injection, schedule: Q01DX009 (ip), vehicle: saline + alcohol) does the source give for `CC[As](CCO)SC1CC(OC(=O)c2ccccc2)C(OC(=O)c2ccccc2)C(COC(=O)c2ccccc2)O1` (stereo not drawn) here?
The T/C was 127 % of control.

And the survivor count (dose: 200.0 mg/kg/injection, schedule: Q01DX009 (ip), vehicle: saline + alcohol)?
Its survivor count is 0 of 6.

What about the survivor count [1] of the same molecule?
Its survivor count is 6 of 6.

What does the source list for `[Cl][Sn]1([Cl])[CH2]CCCCCCCCCC[CH2][Sn]([Cl])([Cl])[CH2]CCCCCCCCCC[CH2]1`?
survivor count [2]: 6 of 6; survivor count [3]: 6 of 6

For `Cc1cc(C(=O)O)ccc1S(=O)(=O)F`, which survivor count [4] is on record?
Its survivor count is 3 of 6.

`COC(=O)c1ccc(C(=O)OC)c2nc3ccccc3nc12` was tested. Which survivor count (dose: 240.0 mg/kg/injection, schedule: Q01DX005 (ip), vehicle: Klucel (hydroxypropylcellulose) (HPC)) did it give?
Its survivor count is 4 of 6.

Which survivor count [4] does the source give for `CCc1nc(N)nc(N)c1-c1ccc(N2CCNCC2)c([N+](=O)[O-])c1` here?
The survivor count was 0 of 6.

`CCCCCCCCC(CCc1ccccc1)CCc1ccccc1` was tested. Which survivor count (dose: 100.0 mg/kg/injection, schedule: Q01DX001 (ip), vehicle: saline with Tween-80) did it give?
Its survivor count is 6 of 6.

How did the survivor count (dose: 200.0 mg/kg/injection, schedule: Q01DX009 (ip), vehicle: other) turn out when `COC(=O)/C=N/NS(=O)(=O)c1ccc(C)cc1` was run?
The survivor count was 4 of 6.

What about the survivor count (dose: 400.0 mg/kg/injection, schedule: Q01DX009 (ip), vehicle: other) of the same molecule?
The survivor count was 0 of 6.

For `CCOC(=O)N1CCN(CCCCCCOc2ccc(C3CCCCC3)cc2)CC1`, which survivor count (dose: 400.0 mg/kg/injection, schedule: Q01DX009 (ip), vehicle: saline with Tween-80) is on record?
The survivor count was 3 of 6.
